Literature values, collected in patent US20060173067A1, “Small molecules for the treatment of atherosclerosis” (The Regents of the University of California, priority 2004, published 2006).

Tested on: CHO—C-19 cells
Details: ApoA-I/Cells; cited from earlier work

ApoA-I: lipid-free human apoA-I, the main protein in HDL, molecular weight of 28,000 Daltons
Bilayer dimension: 4.6 nm
Prominent Feature: Discoidal particles
Size "Nascent HDL Particles": 7.3 nm
Spacing between discoidal particles/bilayers: 1.9 nm
Vesicular structures: 34.7 nm
